Assay results taken from PMC12591160, “Polyadenylation Complex CFII Recognizes Downstream Cis‐element for Pre‐mRNA Polyadenylation Through Interaction with an RNA‐Binding Protein in Arabidopsis”.
No constants are given. Whether binding was seen depends on the method and setting. For part of these data: Binding seen in cells or lysates may run through a third protein. Some binding calls cover weakened binding; strength is not graded here. Sequences can lack the tags named with a protein. Values belong to the binder of their own block, whether it stands above or below them.

Tests used:
[1] = molecular target: T1, PCFS4 (yeast two-hybrid fusion; bridge protein of the three-hybrid) (Arabidopsis thaliana) (UniProt Q0WPF2); assay: two-hybrid; pGADT7 (AD) and pGBKT7 (BD) plasmids co-transformed into yeast AH109; growth on SD/-Leu/-Trp/-His/-Ade
T1 sequence: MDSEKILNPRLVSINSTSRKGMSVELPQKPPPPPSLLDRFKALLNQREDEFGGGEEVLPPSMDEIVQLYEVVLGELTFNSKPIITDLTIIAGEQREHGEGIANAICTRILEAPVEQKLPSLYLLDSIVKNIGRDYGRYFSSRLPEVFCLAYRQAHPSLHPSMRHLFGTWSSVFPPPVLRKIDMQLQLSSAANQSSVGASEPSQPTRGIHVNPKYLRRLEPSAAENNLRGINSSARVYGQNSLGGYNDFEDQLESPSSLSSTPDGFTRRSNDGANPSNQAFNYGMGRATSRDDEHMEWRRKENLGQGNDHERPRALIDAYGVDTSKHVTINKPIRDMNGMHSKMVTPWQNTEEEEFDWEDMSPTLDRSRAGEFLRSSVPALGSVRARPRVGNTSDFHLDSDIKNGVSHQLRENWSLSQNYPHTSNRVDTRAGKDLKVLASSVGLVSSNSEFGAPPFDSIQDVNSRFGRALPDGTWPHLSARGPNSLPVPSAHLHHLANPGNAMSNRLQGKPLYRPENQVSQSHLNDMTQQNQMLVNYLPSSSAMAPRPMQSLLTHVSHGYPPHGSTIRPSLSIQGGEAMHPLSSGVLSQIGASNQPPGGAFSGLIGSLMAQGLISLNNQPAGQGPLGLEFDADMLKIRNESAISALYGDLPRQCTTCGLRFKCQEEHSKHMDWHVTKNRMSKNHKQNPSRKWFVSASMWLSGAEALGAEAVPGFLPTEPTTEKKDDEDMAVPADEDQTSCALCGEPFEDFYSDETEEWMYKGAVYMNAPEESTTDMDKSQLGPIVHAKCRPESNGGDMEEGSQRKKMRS

[2] = molecular target: T2, full-length PCFS4 tagged with GFP or RFP (N. benthamiana) (Arabidopsis thaliana) (UniProt Q0WPF2); assay: FRET or BRET; acceptor photobleaching FRET of two co-expressed GFP- (donor) and RFP- (acceptor) tagged proteins in N. benthamiana leaf cells, 48 h after infiltration; at least 8 cells
T2 sequence: T1 sequence

[3] = molecular target: T3, FPA with a FLAG tag (Arabidopsis protoplasts) (Arabidopsis thaliana) (UniProt Q8LPQ9); assay: co-IP; Arabidopsis protoplasts co-transformed with FLAG-tagged FPA and a MYC-tagged protein; lysate (150 mM NaCl, 0.2% Triton X-100, pH 7.4) on anti-FLAG M2 magnetic beads, 2 h at 4 °C; blots with anti-FLAG and anti-MYC
T3 sequence: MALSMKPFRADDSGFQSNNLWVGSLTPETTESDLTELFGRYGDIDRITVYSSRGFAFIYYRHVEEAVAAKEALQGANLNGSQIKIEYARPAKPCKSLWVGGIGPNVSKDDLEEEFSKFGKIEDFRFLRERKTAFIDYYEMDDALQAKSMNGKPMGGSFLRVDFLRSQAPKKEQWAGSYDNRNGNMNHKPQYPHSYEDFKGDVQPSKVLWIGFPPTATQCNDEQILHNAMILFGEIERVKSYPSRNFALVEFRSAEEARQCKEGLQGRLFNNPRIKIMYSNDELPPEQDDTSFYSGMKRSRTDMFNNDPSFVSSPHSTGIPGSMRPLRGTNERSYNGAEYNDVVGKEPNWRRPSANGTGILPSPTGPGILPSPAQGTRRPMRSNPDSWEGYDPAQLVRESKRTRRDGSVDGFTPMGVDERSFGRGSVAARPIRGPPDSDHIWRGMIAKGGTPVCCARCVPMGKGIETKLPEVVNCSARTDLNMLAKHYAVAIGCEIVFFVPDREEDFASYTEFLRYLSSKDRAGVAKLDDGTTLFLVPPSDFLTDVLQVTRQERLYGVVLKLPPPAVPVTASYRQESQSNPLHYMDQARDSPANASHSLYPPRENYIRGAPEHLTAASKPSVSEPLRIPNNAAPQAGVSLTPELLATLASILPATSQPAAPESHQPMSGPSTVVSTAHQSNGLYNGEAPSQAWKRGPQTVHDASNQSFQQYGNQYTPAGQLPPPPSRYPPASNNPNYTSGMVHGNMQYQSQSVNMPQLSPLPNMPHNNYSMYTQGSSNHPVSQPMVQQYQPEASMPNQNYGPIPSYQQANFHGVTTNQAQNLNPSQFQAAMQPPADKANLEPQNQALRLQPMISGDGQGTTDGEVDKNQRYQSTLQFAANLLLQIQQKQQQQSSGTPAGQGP

binding [1]: binds
B3: FPA (yeast two-hybrid and three-hybrid fusion) (protein, UniProt Q8LPQ9 1-901)
chain: T3 sequence

binding [2]: binds
B4: full-length FPA tagged with GFP or RFP (N. benthamiana) (protein, UniProt Q8LPQ9 1-901)
chain: T3 sequence

binding [3]: no binding
B5: CPSF100 with MYC tag (Arabidopsis protoplasts) (protein, UniProt Q9LKF9 1-739)
chain: MGTSVQVTPLCGVYNENPLSYLVSIDGFNFLIDCGWNDLFDTSLLEPLSRVASTIDAVLLSHPDTLHIGALPYAMKQLGLSAPVYATEPVHRLGLLTMYDQFLSRKQVSDFDLFTLDDIDSAFQNVIRLTYSQNYHLSGKGEGIVIAPHVAGHMLGGSIWRITKDGEDVIYAVDYNHRKERHLNGTVLQSFVRPAVLITDAYHALYTNQTARQQRDKEFLDTISKHLEVGGNVLLPVDTAGRVLELLLILEQHWSQRGFSFPIYFLTYVSSSTIDYVKSFLEWMSDSISKSFETSRDNAFLLRHVTLLINKTDLDNAPPGPKVVLASMASLEAGFAREIFVEWANDPRNLVLFTETGQFGTLARMLQSAPPPKFVKVTMSKRVPLAGEELIAYEEEQNRLKREEALRASLVKEEETKASHGSDDNSSEPMIIDTKTTHDVIGSHGPAYKDILIDGFVPPSSSVAPMFPYYDNTSEWDDFGEIINPDDYVIKDEDMDRGAMHNGGDVDGRLDEATASLMLDTRPSKVMSNELIVTVSCSLVKMDYEGRSDGRSIKSMIAHVSPLKLVLVHAIAEATEHLKQHCLNNICPHVYAPQIEETVDVTSDLCAYKVQLSEKLMSNVIFKKLGDSEVAWVDSEVGKTERDMRSLLPMPGAASPHKPVLVGDLKIADFKQFLSSKGVQVEFAGGGALRCGEYVTLRKVGPTGQKGGASGPQQILIEGPLCEDYYKIRDYLYSQFYLL

The remaining lines, values behind:

B1: CLPS3 (yeast two-hybrid and three-hybrid fusion) (protein, UniProt Q9SR06 1-444)
chain: MAYGGPSMNPPALSGAVPGSANLKQVKLERESELRIEVSEEPLRLRVVNGTAEIFGSELPPEIWRTFPPRMKFAVFTWYGATIEMDGVTETDYTADETPMVSYINVHAILDARRRFAKASTSNDPESSQGPRVIVVGPTDSGKSTLTKMLLSWAAKQGWRPTFVDLDVGQGSITIPGSIAAAPIEMPLDPVEGFPLDMALVYYYGHASPNMNVELYKALVKELAQVLEKQFVGNPESRAAGMVINTMGWIEGIGYELLLHAIDTFNASVVLVLGQEKLFSRLKDVLRSKSNVDVVKLHKSGGVVARVKEVRKRSRNFKIQEYFYGLSKELSPYANTSSFSDLQVFRIGGGPQAPKSALPAGSTSVSNPLRVTPVNIDDRDLLHSVLAVSYAEEPDQIISSNVSGFVYVTEVNVQKKKITYLAPSPGTLPSKLLVAGSLAWLESV
binding [1]: binds

B2: CLPS3 tagged with GFP or RFP (N. benthamiana) (protein, UniProt Q9SR06 1-444)
chain: B1 chain
binding [2]: binds

B6: PCFS4 with MYC tag (Arabidopsis protoplasts) (protein, UniProt Q0WPF2 1-808)
chain: T1 sequence
binding [3]: binds
